Measured values taken from publication PMC12380376.
These are yes or no findings as the source states them, for the method shown. In cells and extracts the contact can be indirect. Some binding calls cover weakened binding; strength is not graded here.

By UniProt entry, the sequences of proteins in these tests, tags left out.
UniProt Q60793: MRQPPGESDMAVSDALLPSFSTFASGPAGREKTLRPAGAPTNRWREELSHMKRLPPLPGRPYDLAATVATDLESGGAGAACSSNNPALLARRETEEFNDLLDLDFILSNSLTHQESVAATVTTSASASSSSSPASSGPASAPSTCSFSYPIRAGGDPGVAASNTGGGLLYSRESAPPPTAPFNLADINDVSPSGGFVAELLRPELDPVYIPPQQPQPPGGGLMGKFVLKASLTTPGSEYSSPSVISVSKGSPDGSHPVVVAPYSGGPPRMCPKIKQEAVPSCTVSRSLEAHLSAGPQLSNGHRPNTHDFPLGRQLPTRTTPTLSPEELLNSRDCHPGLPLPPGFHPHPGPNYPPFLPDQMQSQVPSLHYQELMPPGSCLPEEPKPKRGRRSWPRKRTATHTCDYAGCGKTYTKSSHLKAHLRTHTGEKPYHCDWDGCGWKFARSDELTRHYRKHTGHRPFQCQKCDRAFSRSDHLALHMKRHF
UniProt P52479: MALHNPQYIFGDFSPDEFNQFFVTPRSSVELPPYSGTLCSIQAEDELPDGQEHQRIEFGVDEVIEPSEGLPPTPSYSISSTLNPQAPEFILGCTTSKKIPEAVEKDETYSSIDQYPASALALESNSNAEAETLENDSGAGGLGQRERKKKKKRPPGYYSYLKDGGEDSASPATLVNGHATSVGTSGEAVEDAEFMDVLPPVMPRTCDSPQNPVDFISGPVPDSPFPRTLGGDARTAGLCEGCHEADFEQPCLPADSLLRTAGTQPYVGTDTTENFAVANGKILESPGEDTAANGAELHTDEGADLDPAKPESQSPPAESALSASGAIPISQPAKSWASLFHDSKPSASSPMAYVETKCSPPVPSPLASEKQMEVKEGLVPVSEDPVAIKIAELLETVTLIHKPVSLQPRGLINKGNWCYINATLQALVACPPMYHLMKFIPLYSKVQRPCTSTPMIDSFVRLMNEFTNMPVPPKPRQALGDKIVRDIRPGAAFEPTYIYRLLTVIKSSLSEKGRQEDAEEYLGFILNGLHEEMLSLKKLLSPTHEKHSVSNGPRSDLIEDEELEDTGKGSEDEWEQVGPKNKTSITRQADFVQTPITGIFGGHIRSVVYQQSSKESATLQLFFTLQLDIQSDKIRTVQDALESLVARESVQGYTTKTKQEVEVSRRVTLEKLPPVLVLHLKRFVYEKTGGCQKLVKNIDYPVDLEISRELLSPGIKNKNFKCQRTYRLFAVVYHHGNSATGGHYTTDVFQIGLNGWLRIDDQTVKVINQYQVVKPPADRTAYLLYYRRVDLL

Target: Krüppel-like factor 4 (KLF4) (mouse (endogenous in RAW264.7)) (UniProt Q60793)
Assay: co-IP; endogenous proteins in RAW264.7 lysates; extracts pre-cleared with Protein G beads, overnight with target antibodies on A/G-agarose beads at 4 °C, washed with lysis buffer, Western blot

binding: binds
Substance: ubiquitin-specific peptidase 10 (USP10) (from UniProt P52479 1-792) (enzyme)
